Results are given in words; binding and its absence hold for the method and conditions named. Binding seen in cells or lysates may run through a third protein. Some results given as binding are weak or reduced against the parent protein; the word gives no strength. For part of these data: Where a sequence is shown, tags or fusion partners need not be part of it.
How the values were obtained:
[1] = biological target: T1, DISC1, endogenous (mouse) (mouse (endogenous in MEFs and mouse brain)) (UniProt Q811T9); assay: co-IP; endogenous proteins in MEF lysate; Nonidet P-40 buffer, Protein A beads, 4 °C, immunoblot; precipitating antibody not given
T1 sequence: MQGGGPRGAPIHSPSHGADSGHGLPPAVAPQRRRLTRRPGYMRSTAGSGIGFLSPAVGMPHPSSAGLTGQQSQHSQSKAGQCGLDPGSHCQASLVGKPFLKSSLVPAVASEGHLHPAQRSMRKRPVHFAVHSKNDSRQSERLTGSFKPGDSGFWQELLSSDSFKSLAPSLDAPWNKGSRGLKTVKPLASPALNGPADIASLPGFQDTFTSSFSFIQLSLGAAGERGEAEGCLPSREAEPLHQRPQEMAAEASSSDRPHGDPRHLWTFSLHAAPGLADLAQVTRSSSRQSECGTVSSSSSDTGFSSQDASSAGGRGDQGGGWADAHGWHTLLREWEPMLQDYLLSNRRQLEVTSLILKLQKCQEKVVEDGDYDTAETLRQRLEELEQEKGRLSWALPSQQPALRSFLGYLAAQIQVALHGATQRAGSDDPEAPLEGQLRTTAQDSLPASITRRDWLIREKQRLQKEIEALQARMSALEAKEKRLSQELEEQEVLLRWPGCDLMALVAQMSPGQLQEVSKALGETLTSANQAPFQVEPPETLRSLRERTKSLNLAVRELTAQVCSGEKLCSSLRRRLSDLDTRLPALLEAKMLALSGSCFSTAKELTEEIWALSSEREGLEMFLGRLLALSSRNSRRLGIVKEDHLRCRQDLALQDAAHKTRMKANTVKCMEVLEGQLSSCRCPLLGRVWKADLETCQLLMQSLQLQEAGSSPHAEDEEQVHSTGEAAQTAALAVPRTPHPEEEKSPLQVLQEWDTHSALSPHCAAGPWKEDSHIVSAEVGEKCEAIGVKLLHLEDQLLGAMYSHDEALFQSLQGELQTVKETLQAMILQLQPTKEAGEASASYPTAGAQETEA

Sequences of proteins named here, by UniProt entry; tags and fusion partners are left off.
UniProt Q9WTL8: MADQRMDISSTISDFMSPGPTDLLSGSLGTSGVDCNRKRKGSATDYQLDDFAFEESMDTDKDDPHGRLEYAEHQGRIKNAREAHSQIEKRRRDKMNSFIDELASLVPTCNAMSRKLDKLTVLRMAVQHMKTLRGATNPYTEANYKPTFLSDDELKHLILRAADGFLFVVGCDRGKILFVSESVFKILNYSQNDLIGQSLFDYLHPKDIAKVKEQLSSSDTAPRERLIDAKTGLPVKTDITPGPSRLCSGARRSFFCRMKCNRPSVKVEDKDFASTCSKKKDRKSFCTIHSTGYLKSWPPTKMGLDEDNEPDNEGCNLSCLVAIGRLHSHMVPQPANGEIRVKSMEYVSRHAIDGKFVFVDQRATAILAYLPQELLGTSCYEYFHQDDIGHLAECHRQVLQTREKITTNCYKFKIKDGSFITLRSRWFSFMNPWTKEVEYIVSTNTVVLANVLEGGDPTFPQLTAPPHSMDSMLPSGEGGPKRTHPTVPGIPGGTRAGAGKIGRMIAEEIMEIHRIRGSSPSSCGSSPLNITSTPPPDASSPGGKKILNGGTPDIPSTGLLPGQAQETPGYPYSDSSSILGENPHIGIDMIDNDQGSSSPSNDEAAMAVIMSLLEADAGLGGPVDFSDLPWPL
UniProt O00327: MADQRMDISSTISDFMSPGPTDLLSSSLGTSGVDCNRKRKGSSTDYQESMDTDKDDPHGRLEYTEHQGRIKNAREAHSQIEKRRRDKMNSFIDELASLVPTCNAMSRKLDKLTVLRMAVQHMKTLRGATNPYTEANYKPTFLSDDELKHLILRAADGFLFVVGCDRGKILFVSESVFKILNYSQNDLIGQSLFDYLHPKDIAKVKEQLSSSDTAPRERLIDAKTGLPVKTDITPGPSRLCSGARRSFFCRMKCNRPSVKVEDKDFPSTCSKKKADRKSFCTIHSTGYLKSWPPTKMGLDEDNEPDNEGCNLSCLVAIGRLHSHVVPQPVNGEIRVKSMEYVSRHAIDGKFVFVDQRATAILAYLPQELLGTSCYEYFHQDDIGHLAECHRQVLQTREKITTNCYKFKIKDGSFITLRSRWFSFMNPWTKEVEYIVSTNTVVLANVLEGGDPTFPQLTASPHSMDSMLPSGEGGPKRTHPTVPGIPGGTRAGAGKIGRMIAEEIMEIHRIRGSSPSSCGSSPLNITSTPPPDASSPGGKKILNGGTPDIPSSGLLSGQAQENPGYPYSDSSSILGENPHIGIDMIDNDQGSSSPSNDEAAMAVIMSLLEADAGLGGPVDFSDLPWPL

[2] = biological target: T1, DISC1, endogenous (mouse) (mouse (endogenous in MEFs and mouse brain)); assay: co-IP; endogenous proteins in mouse brain lysate (homogenised in Nonidet P-40 buffer), Protein A beads, 4 °C, immunoblot; precipitating antibody not given
[3] = biological target: T2, Flag-DISC1 (human Disrupted-in-schizophrenia 1) (human) (UniProt Q9NRI5); assay: co-IP; Flag-DISC1 and GFP-BMAL1 transfected in HEK293 cells, precipitated with Flag-DISC1; Nonidet P-40 buffer (50 mM Tris-Cl pH 8.0, 150 mM NaCl, 1% NP40, 5 mM EDTA), Protein A beads, 4 °C, immunoblot
T2 sequence: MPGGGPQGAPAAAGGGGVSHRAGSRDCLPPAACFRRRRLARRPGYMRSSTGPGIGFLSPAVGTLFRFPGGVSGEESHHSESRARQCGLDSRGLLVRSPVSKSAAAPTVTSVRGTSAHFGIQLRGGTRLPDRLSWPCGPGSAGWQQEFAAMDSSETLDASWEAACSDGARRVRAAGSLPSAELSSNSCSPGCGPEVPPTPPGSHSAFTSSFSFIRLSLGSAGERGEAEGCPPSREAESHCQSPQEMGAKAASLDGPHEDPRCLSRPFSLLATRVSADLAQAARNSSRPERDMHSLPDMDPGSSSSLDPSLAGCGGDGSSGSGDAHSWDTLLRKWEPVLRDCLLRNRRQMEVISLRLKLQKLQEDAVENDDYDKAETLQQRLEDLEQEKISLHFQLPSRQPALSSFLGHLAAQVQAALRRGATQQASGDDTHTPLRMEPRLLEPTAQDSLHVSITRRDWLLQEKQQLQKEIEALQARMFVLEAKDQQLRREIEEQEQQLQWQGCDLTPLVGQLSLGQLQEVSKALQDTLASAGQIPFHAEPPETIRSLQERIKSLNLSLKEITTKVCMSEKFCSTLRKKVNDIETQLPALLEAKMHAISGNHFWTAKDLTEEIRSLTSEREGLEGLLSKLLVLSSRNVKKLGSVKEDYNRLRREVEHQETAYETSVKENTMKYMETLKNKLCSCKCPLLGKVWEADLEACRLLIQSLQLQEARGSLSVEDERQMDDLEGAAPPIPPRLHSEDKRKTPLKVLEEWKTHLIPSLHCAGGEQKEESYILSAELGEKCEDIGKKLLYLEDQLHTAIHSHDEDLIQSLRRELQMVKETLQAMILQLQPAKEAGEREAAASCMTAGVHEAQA

binding [1]	binding [2]	binding [3]	Substance
binds	binds		BMAL1, endogenous (mouse) (from UniProt Q9WTL8 1-632)
		binds	GFP-BMAL1 (human Brain and muscle Arnt-like protein-1) (from UniProt O00327 1-626)
